Test results reported in publication doi:10.1101/2021.03.26.437179.
No constants are given. Whether binding was seen depends on the method and setting. Some binding calls cover weakened binding; strength is not graded here. Tags and fused reporters may be left off the sequences shown.

T1: BD-PUB26 (Arabidopsis thaliana) (UniProt Q9FXA4)
T1 sequence: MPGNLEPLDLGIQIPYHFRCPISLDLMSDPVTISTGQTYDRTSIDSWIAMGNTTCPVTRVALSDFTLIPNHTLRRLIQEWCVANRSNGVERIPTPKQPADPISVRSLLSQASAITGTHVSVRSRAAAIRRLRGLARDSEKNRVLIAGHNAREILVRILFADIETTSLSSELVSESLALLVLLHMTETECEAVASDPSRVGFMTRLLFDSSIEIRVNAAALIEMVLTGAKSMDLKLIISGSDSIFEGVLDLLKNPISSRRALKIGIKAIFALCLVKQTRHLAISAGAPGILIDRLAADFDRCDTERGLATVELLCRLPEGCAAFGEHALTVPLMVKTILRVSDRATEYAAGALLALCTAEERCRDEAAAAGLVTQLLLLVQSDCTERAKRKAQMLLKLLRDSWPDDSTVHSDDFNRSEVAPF


Biological target: T1, BD-PUB26 (Arabidopsis thaliana)
Assay: two-hybrid

binding | Binder
binds | RGNFTDDEDQIIIKLHSLLGNKWSLIAGRLPGRTDNEIKNYWNTH (domain or fragment, UniProt Q38851 67-111) [MYB6 (67-111)]
binds | KGAWTKEEDQRLVDYIRNHGEGCWRSLPKSAGLLRCGKSCRLRWINYL (domain or fragment, UniProt Q38851 14-61) [MYB6 (14-61)]
